Laboratory results as given in patent US20230201232A1, “COMPOSITION FOR AMELIORATION, PREVENTION OR TREATMENT OF HAIR LOSS, COMPRISING CATECHIN 7-O-beta-D-APIOFURANOSIDE AS ACTIVE INGREDIENT” (ANPOLY INC., priority 2020, published 2023).
For at least one compound, name, drawing or mass did not settle the structure.

Test system: production of dihydrotestosterone (DHT) from testosterone in dermal papilla cells (HFDPC)
Assay: Dihydrotestosterone production inhibitory activity assay (DHT ELISA)
Assay type: cell-based, human
Conditions: HFDPC treated with 20 nM testosterone; positive control at 10 µM; FIG. 3
Description: HFDPC cells were inoculated in a papilla cell-specific medium (PromoCell, Heidelberg, Germany or Cell biologics Inc, IL, USA) recommended by the supplier, subcultured for 24 to 48 hours at 37° C. and 5% CO2 conditions, and used for experiments.
Quantitative analysis of dihydrotestosterone (DHT) was performed by immunochemical quantitative analysis using an ELISA kit. A DHT assay ELISA kit was purchased from Alpco (NH, USA) and used. The experiment using the kit was performed according to the instructions provided by the manufacturer, and the result was derived by converting the amount of antigen (pg/µg) per volume (ml) of cell lysate into a concentration unit.

SMILES: Nc1cc(N2CCCCC2)nc(N)[n+]1[O-] [minoxidil, reference compound]
- inhibition of DHT production: production of DHT was significantly inhibited
